Measurements published in article PMC11957390.
No constants are given. Whether binding was seen depends on the method and setting. Binding seen in cells or lysates may run through a third protein. These calls come from enrichment with a bait or labelling near it, and not all partners need be listed. Tags and fused reporters may be left off the sequences shown.

Molecular target: T1, 2×Myc-LSDV012 (Lumpy skin disease virus)
T1 sequence: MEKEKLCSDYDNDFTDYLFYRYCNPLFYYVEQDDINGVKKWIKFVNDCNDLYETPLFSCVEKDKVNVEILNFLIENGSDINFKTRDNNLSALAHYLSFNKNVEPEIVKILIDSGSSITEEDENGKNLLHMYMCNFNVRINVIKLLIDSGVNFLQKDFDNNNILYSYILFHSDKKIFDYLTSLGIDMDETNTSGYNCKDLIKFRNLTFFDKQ
Experiment: affinity purification with mass spectrometry

B1: bovine IFIT5 (endogenous, MDBK) (protein, UniProt F6QAR8 1-482)
chain: MSEIPKDCLKTILLELECHFTWNLLKEDIDLFDVEDTIGQQLEFLTTKSRLTLYNLLAYVKHLKGQNEDALKCLKQAEEIIRREHSDKEGVRSLVTWGNYAWVYYDMGQLKEAQKYIGKIGSVCKTLSSPSDYKLERPEIDCEKGWALLKFGGKYYQKAKAAFEKALEAEPDNPEFNIGYAITVYRLDDSDREGSIKSFSLGPLRKAVTLNPDNSYIKVFLALKLQDVHAEAEGEKYIEEILDQISAQPYVLRYAAKFYRRKNSWDKALELLKKALEVTPTSSFLHHQMGLCYRAQMIQIKKATRNRPKGKDKLKVDELITSAISHFKAAVERDSMFAFAYTDLANMYAEGGQYSNAEDIFQKALRLENITDDHKHQIHYHYGRFQEFHRKSENTAIHHYLEALKVKDRSSLRPKLTSALKKLATKRLGYNASDVQSLSALGFVYKLEGEKRQAAEYYERAQKIDPENAEFLTALCELRLSI
- binding: binds
